The values below come from patent publication US8829067B2, “Polymerizable compositions with initiators containing several Ge atoms” (Ivoclar Vivadent AG, priority 2008, dated 2014).

The nature of this series: Photopolymerization in resin mixture D3MA:UDMA:bis-GMA=1:1:1.

With bisacyl diethylgermanium, the “reactivity compared with camphorquinone/amine” value (15-fold dilution of the initiator) was “comparable with camphorquinone/amine”. Further, for the setting “D3MA:UDMA:bis-GMA=1:1:1”, the “curing time compared with campherquinone/amine” value is on record as “halved”. Besides, the “polymerization rate (Rp) compared with camphorquinone in combination with an amine accelerator” value (same formulation D3MA:UDMA:bis-GMA=1:1:1) is given as “almost double”.
